Assay results as given in PMC9452577.
These are yes or no findings as the source states them, for the method shown. Binding seen in cells or lysates may run through a third protein. Some binding calls cover weakened binding; strength is not graded here.

Protein sequences, listed by entry. Tags and fused reporters are not part of them.
UniProt P53805: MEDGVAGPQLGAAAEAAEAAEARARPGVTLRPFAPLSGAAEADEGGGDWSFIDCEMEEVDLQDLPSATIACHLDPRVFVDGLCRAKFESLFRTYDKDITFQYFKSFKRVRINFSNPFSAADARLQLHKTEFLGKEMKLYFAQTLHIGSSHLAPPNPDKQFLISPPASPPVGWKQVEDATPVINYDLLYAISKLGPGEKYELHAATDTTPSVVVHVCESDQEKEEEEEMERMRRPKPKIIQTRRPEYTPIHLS

Biological target: Regulator of calcineurin 1 (RCAN1), endogenous (human (endogenous in HK-2)) (UniProt P53805)
Assay: co-IP; endogenous proteins in HK-2 cells under hypoxia/reoxygenation (HR) injury; 1 mg total lysate (1% Triton X-100, 150 mM NaCl, 60 mM octyl glucoside buffer) with anti-RCAN1, anti-JNK or anti-Mff overnight at 4 °C, protein A/G magnetic beads; IgG control; immunoblot

B1: Mitochondrial fission factor (Mff), endogenous (protein, UniProt Q9GZY8 1-342)
chain: MSKGTSSDTSLGRVSRAAFPSPTAAEMAEISRIQYEMEYTEGISQRMRVPEKLKVAPPNADLEQGFQEGVPNASVIMQVPERIVVAGNNEDVSFSRPADLDLIQSTPFKPLALKTPPRVLTLSERPLDFLDLERPPTTPQNEEIRAVGRLKRERSMSENAVRQNGQLVRNDSLWHRSDSAPRNKISRFQAPISAPEYTVTPSPQQARVCPPHMLPEDGANLSSARGILSLIQSSTRRAYQQILDVLDENRRPVLRGGSAAATSNPHHDNVRYGISNIDTTIEGTSDDLTVVDAASLRRQIIKLNRRLQLLEEENKERAKREMVMYSITVAFWLLNSWLWFRR
- binding: binds
